This experiment addresses Myc-IpaH9.8 (pRK5Myc-IpaH9.8) (S. flexneri) (UniProt Q8VSC3). The experiment is described as follows: co-IP; HEK293T co-transfected with pRK5Myc-IpaH9.8 and pCR3.1His-UFM1 (or His-UFM1 alone as control); lysis in 2% SDS, 10% glycerol, 62.5 mM Tris pH 6.8, diluted with 4 volumes of IP buffer (50 mM Tris pH 8.0, 150 mM NaCl, 1% NP-40); anti-Myc antibody and Protein A agarose.

Sequences of proteins named here, by UniProt entry; tags and fusion partners are left off.
UniProt Q8VSC3: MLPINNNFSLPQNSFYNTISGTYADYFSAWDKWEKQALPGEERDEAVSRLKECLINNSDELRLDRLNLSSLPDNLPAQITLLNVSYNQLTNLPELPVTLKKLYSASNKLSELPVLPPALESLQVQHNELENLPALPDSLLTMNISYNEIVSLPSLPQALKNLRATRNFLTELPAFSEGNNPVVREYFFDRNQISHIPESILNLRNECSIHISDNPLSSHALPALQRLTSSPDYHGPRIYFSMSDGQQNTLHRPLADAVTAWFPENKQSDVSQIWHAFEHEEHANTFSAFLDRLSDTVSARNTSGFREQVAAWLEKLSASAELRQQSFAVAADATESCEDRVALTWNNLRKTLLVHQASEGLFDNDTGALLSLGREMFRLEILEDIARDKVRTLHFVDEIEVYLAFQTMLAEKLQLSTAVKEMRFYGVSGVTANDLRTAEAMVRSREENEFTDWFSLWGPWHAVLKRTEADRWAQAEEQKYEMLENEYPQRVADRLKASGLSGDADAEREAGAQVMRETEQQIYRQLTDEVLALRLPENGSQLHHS
UniProt P61960: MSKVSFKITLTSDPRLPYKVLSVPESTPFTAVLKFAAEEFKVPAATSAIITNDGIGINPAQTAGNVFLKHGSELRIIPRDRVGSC

These are yes or no findings as the source states them, for the method shown. In cells and extracts the contact can be indirect. Some binding calls cover weakened binding; strength is not graded here.

As to “His-UFM1 (pCR3.1His-UFM1) (from UniProt P61960 1-85)”, the binding result is “binds”.

The values above are taken from article doi:10.1101/2025.05.29.656827.
